The results are deposited in PubChem (AID1159506; NCATS, 2015).

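Genome-wide siRNA knockdown in TC32 Ewing sarcoma cells, comparing luciferase light from an NR0B1-promoter reporter with a CMV-promoter reporter 48 hours after transfection. Each siRNA was applied at 20 nM. A z-score of the log NR0B1-over-CMV signal, less the median of siRNAs with the same seed; more negative means a stronger specific loss of the NR0B1 reporter.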

The strongest results of the screen are mostly left out here. Sequences are the guide (antisense) strand, without overhang.

Result for UUGUGGACAAUACCAACAG against MAL was seed-corrected z-score 0.2869.
Result for UUUUGUGAGCGGACCGUCC against NLGN2 was seed-corrected z-score 0.521.
Result for AGCGCGAUAAAUUACGGGC against PTGDR was seed-corrected z-score -0.1721.
Result for UUCGGUAGAUCUUUGCUGC against CS was seed-corrected z-score -0.7295.
Result for UGUCCAAUCAGGUGUGAGC against LOC728416 was seed-corrected z-score 0.334.
Result for AUAAUAGCAGGCACAAUUC against ADAM9 was seed-corrected z-score 0.183.
Result for GACCUUUAGGCCAAGGUCU against RPS10P15 was seed-corrected z-score 0.05331.
Result for UCUUUUCCAACAACUGUAU against IDS was seed-corrected z-score -0.8365.
Result for UUGAGGUUCCGGCAGAUGC against FBXO41 was seed-corrected z-score -1.76.
Result for UGAUCUUUGCCUUCAAGGG against OPRK1 was seed-corrected z-score -1.027.
Result for UGCGUUAACAGUUCCAAGG against DNAH3 was seed-corrected z-score 0.9648.
Result for UUCAGCAUGAUCUGAGUCU against KLRC3 was seed-corrected z-score -0.9408.
Result for AAUGGUAUCAUGGAACACU against SPEM1 was seed-corrected z-score 0.06194.
Result for UUUAGAAACAUUCAUAUCU against PMAIP1 was seed-corrected z-score 0.7631.
Result for UAUACUUGAGGGUAUCUCC against LRRTM3 was seed-corrected z-score -0.1586.
Result for CAUCUCGCCAAACGUCUCC against MXRA7 was seed-corrected z-score 0.5684.
Result for UCAUAGAACUUUUUAUUCC against C11orf57 was seed-corrected z-score -1.143.
Result for UACUCUCCCACUCACUCAG against BLCAP was seed-corrected z-score -0.04779.
Result for AAUCUUGUCAUCACGUCUG against S100A7 was seed-corrected z-score -0.5165.
Result for UGGAUAAGAACUGAUGAUC against MIPOL1 was seed-corrected z-score 0.7302.
Result for UUAGGUUCAAGAAACGCAG against STK11IP was seed-corrected z-score 0.4128.
Result for UGUUUGAUCCCAUAGAAGC against CHCHD2P9 was seed-corrected z-score -1.192.
Result for UUCUCGUCUUCUGUUUCCG against CHMP2B was seed-corrected z-score -0.141.
Result for AGACGUAACAGCAGUAUGG against NBEAL2 was seed-corrected z-score 0.5263.
Result for UAUUUGAGAACACAAAUUU against HLA-C was seed-corrected z-score -0.1098.
Result for UCUAUCAUAAUCGCUGAGG against C12orf4 was seed-corrected z-score -0.06636.
Result for UAGAGGACCGCUGAUGCAG against HAS1 was seed-corrected z-score 1.336.
Result for UUUCGUUUCCCAACGAUGC against INADL was seed-corrected z-score -0.5677.
Result for AUAGUGAUGAGCGCGAUAU against FOXD1 was seed-corrected z-score 1.283.
Result for UCCAGUAACCUUGCUAAGC against ZBED9 was seed-corrected z-score -0.4825.
Result for UAGGUCAAAGGCAUGGAAG against CDCP2 was seed-corrected z-score 0.2969.
Result for AAAAUUUUGCGGUAGUUCA against PABPC1L2B was seed-corrected z-score 1.122.
Result for UGAAGUCUAAGGUAAUUUG against ZNF101 was seed-corrected z-score -0.8465.
Result for UCUUUAUCCUGUUCAAUUC against PGGT1B was seed-corrected z-score 0.2328.
Result for UACUACAUGAUGGAGCAGG against RNF208 was seed-corrected z-score -0.5625.
Result for UUUAGUAUAGAACUUGUUG against MADD was seed-corrected z-score 0.4104.
Result for UCUCAGAUUGCUUUCAUCC against ACP1 was seed-corrected z-score 0.3549.
Result for CACAUUGCUCGAAUGCUUC against ZBTB8OSP2 was seed-corrected z-score 1.507.
Result for UUGCCUUGCAUAAUCAACG against GIT2 was seed-corrected z-score -0.03585.
Result for UUGUUGCAUAUGAACCUCC against CYLC1 was seed-corrected z-score -0.2473.
Result for UUUCCAUUAACUGGUUACC against GJA9 was seed-corrected z-score -0.165.
Result for UUCGGGUCCAGAAAGCAGC against PRSS36 was seed-corrected z-score -0.2087.
Result for UCCCGAACCAGUCCUCUAG against CDK2AP1 was seed-corrected z-score -0.6906.
Result for UAGAGUUUAGGCUGGAUGU against STON1-GTF2A1L was seed-corrected z-score 0.4711.
Result for UUCAAUGAGAUUCAAAUCC against SMIM23 was seed-corrected z-score -0.1313.
Result for GGCUGCUCCAGACUUCUUG against UCA1 was seed-corrected z-score -0.7737.
Result for UGUGAAUAAAUGCGAGUCC against ICK was seed-corrected z-score -0.05635.